Results from patent publication US9102835B2, “Methods of using dyes in association with nucleic acid staining or detection and associated technology” (Biotium, Inc., priority 2005, dated 2015).

Assays:
salmon sperm DNA [1] = experiment: Absorbance and fluorescence of DMAO and AOAO-7 without and with DNA; conditions: PBS buffer; for Red shift of absorbance upon binding to DNA, relative to free dye: 2 mg/ml salmon sperm DNA
[2] = system: salmon sperm DNA or a mixture of single-stranded 20mer oligonucleotide; experiment: Fluorescence of AOAO-12 in response to different amount of DNA; conditions: 0.1 μM dye in PBS
salmon sperm DNA [3] = experiment: Absorbance spectra of TOTO-1 and TOTO-3 without and with DNA; conditions: PBS buffer, without DNA

Row | SMILES | Red shift of absorbance upon binding to DNA, relative to free dye (salmon sperm DNA [1]) [nm] | Spectral shift / intramolecular H-dimer formation of free dye (salmon sperm DNA [3]) | also measured
1 | CN(C)c1ccc2cc3ccc(N(C)C)cc3[n+](CCCCCC(=O)NCCCCCNC(=O)CCCCC[n+]3c4cc(N(C)C)ccc4cc4ccc(N(C)C)cc43)c2c1 [AOAO-7] | 5 | – | New shorter wavelength absorbance peak relative to DMAO (aggregation of the two monomers) (salmon sperm DNA [1]; without DNA): 471 nm
2 | CN(C)c1ccc2cc3ccc(N(C)C)cc3[n+](CCCCCC(=O)NCCOCCNC(=O)CCCCC[n+]3c4cc(N(C)C)ccc4cc4ccc(N(C)C)cc43)c2c1 [AOAO-12] | – | – | DNA concentration up to which fluorescence responded linearly [2]: 2.0 µg/mL; Fluorescence bound to double stranded versus single stranded DNA [2]: fluoresces more intensely when bound to double stranded DNA than when bound to single stranded DNA
3 | CN(C)CCC[n+]1c2cc(N(C)C)ccc2cc2ccc(N(C)C)cc21.[I-] [DMAO] | 10 | – | –
4 | CN1/C(=C/c2cc[n+](CCC[N+](C)(C)CCC[N+](C)(C)CCC[n+]3ccc(/C=C4\Sc5ccccc5N4C)c4ccccc43)c3ccccc23)Sc2ccccc21.[I-].[I-].[I-].[I-] [TOTO-1, reference compound] | – | has less spectral shift | –
5 | C[n+]1c(/C=C2/C=CN(CCCCCC(=O)NCCNC(=O)CCCCCN3C=C/C(=C\c4sc5ccccc5[n+]4C)c4ccccc43)c3ccccc32)sc2ccccc21 [TOTO-3] | – | forms an intramolecular H-dimer, or a hairpin structure | –
